Experimental data as given in PubChem BioAssay AID504834 (National Center for Advancing Translational Sciences (NCATS), 2011).
Out of some 320,000 compounds screened, about 22,000 (6.9%) were called active. Inconclusive results, whose numbers are uncertain, are shown with a selection of clear calls. The call rests on the fitted dose curve; in most records, active means well fitted inhibition curve with a large enough effect; inconclusive means small, poorly fitted or top-dose-only effect, or another doubt; inactive means no such curve, though single readings can be large or run the other way. Potencies of inconclusive entries are doubtful fits and often do not repeat.

Test: Primary qHTS for delayed death inhibitors of the malarial parasite plastid, 96 hour incubation
Details: P. falciparum luciferase reporter growth; series mostly up to 28.7 µM; activity change, negative = inhibition: at the top concentration
Procedure, shortened: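 Readout is luminescence from an integrated firefly luciferase in P. falciparum. Red cells, 2% hematocrit and 0.05% parasitemia final, were cultured with compound through two parasite generations (96 hours) at 37 C, 5% CO2.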
On the % scale 0 is the no-effect control and ±100 the full control effect; potency means the concentration at half of the fitted maximal effect.

SMILES	Potency	activity change, negative = inhibition
CCn1cnc2c1c(=O)n(CC(=O)OC(C)C(N)=O)c(=O)n2Cc1ccccc1 (stereo unspecified)	inconclusive: 3.7 µM [inhibitor, full curve]	
CC1OC(OC2C(O)CC(OC3C(O)CC(OC4CCC5(C)C(CCC6C5CCC5(C)C(C7=CC(=O)OC7)CCC65O)C4)OC3C)OC2C)CC(O)C1O (stereo unspecified)	active: 4.78 µM	
Cc1nnc(SCC(=O)c2ccc(Br)cc2)s1		inactive: 10.2%
Cc1cc(C(=O)NP(=O)(N2CC(C)OC(C)C2)N2CC(C)OC(C)C2)c(C)n1C1CC1 (stereo unspecified)		inactive: 10%
O=C(Nc1nc2ccc(S(=O)(=O)N3CCCCC3)cc2s1)c1ccncc1		inactive: -18.8%
COc1ccc(CCN(C)CC(=O)Nc2c(C)cc(C)cc2C)cc1OC	inconclusive: 16.5 µM [inhibitor, single point]	
Cc1ccc(NS(=O)(=O)c2ccc(C)c(C(=O)N3CCOCC3)c2)cc1	inconclusive: 18.5 µM [inhibitor, partial curve, poor fit]	
COC(=O)N1C(=O)[C@](CC(C)C)(c2ccccc2)N1C(=O)OC		inactive: 94.2%
CCn1cc(CNC(=O)c2ccc(Cl)c([N+](=O)[O-])c2)c(C)n1	active: 14.7 µM	
COc1ccc(CCC(=O)NC2=NCCS2)cc1OC		inactive: -36.2%
Cc1cccc(C(=O)NCc2nnc(SCC(=O)NC(C)c3ccccc3)n2C)c1 (stereo unspecified)	inconclusive: 13.1 µM [inhibitor, single point]	
O=C(CCSc1ccccc1)NCc1cccnc1	inconclusive: 14.7 µM [inhibitor, partial curve, poor fit]	
c1csc(-c2cnc3n2CCCC3)c1	inconclusive: 14.7 µM [inhibitor, partial curve, poor fit]	
CCCCOc1c(Cl)cc(CNC(C)(C)CO)cc1OCC		inactive: 14.3%
CCOC(=O)C(Cc1ccccc1)NC(=O)CCC(=O)c1ccc(OC)cc1 (stereo unspecified)		inactive: 28.2%
Cc1noc(C)c1CSCC(=O)Nc1cc(C(F)(F)F)ccc1N1CCOCC1	inconclusive: 11.7 µM [inhibitor, single point]	
COc1ccc(CCC(=O)N/N=C(\C)c2ccc3c(c2)OCO3)cc1	inconclusive: 18.5 µM [inhibitor, partial curve, poor fit]	
COc1ccc(CCNC(=O)CCCn2c(=O)c3cccn3c3cccnc32)c(OC)c1OC	active: 13.1 µM	
CCOC(=O)C1C(C(=O)Nc2cccc(C(F)(F)F)c2)C1C(=O)NC(C)C (stereo unspecified)		inactive: 32.5%
COc1ccccc1-c1nn2c(C(F)(F)F)nnc2s1	inconclusive: 18.5 µM [inhibitor, single point]	
COc1ccc(C(C(C(=O)c2cccs2)N2CCOCC2)N2CCOCC2)cc1OC (stereo unspecified)	inconclusive: 0.0029 µM [inhibitor, full curve, poor fit]	

Two neighbouring compounds from above, quoted:
SMILES	Potency	activity change, negative = inhibition
COc1ccc(CCC(=O)NC2=NCCS2)cc1OC		inactive: -36.2%
Cc1cccc(C(=O)NCc2nnc(SCC(=O)NC(C)c3ccccc3)n2C)c1 (stereo unspecified)	inconclusive: 13.1 µM [inhibitor, single point]	
